No constants are given. Whether binding was seen depends on the method and setting. Binding seen in cells or lysates may run through a third protein. Some binding calls cover weakened binding; strength is not graded here.

Protein sequences, listed by entry. Tags and fused reporters are not part of them.
UniProt Q5VZM2: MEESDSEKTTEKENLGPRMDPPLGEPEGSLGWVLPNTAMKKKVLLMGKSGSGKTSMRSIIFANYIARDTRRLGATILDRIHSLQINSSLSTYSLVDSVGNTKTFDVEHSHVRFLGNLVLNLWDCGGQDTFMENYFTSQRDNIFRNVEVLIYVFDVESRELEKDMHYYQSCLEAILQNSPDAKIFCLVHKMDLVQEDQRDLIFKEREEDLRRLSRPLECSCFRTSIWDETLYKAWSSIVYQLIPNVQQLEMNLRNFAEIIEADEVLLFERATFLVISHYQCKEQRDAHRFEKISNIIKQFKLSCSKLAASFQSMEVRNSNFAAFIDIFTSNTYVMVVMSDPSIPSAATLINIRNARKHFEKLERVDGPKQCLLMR
UniProt P04610: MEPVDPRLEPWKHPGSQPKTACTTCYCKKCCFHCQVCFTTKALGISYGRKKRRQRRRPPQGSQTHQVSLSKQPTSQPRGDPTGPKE
UniProt P12504: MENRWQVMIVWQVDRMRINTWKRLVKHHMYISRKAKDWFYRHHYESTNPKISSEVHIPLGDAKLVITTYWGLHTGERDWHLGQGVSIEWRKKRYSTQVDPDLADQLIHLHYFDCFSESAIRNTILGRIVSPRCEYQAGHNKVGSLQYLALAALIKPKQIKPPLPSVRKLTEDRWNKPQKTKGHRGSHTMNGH

In assay [1] the target is RagA (human (endogenous in HeLa)) (UniProt Q7L523). The assay is described as follows: co-IP; endogenous RagA or RagB precipitated with anti-RagA or anti-RagB on Dynabeads Protein A from 500 ug lysate of HeLa cells transfected with pNL4-3 (also pNLXX, pNLXX + pSVGag, pNLVif-); NP-40 lysis buffer (50 mM Tris HCl pH 8.0, 150 mM NaCl, 0.5 mM EDTA, 0.5% NP-40), overnight at 4 °C; Western blot for viral proteins. (Immunoblotting shows a protein as a band on a membrane.)

For assay [2], the target named is RagB (human (endogenous in HeLa)) (UniProt Q5VZM2). The description is as above.

For the substance HIV-1 Tat (from UniProt P04610 1-86), the binding entry in assay [1] was “no binding”.

Consider HIV-1 Vif (from UniProt P12504 1-192), for which the binding entry in assay [2] is on record as “binds”.

HIV-1 Nef (from UniProt P03406 1-206): the binding result in assay [1] was “no binding”.

For the origin of these results see article PMC5511174.
